According to paper PMC7356291:
Results are given in words; binding and its absence hold for the method and conditions named. Binding seen in cells or lysates may run through a third protein. Some entries that bind do so weakly or less than the wild type. For some of these results: Sequences can lack the tags named with a protein. Blank lines part the entries; values can stand above or below the molecule they belong to.

Chains of the proteins cited; added tags and fusions are not shown.
UniProt P21728: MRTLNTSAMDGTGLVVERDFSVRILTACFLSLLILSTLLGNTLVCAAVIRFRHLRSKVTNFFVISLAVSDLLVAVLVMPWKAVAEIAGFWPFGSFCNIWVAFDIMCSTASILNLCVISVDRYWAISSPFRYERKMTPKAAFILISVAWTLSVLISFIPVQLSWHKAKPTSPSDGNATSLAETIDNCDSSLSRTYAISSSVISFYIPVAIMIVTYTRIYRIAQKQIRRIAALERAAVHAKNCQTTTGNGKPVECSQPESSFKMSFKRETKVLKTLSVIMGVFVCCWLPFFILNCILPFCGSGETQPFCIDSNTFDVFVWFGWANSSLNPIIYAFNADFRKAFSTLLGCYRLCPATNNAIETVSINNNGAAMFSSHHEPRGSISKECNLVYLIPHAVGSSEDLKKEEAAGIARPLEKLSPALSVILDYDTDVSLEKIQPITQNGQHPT

Key:
Experiment in all cases: FRET or BRET; BRET saturation in HEK-293T cells co-transfected with a constant Rluc donor construct and increasing amounts of the YFP acceptor construct; 48 h after transfection; coelenterazine H; cells in HBSS pH 7.4
[1] = target: Rluc-YWHAZ WT (14-3-3ζ wild type fused with Renilla luciferase) (human) (UniProt P63104)
[2] = target: DRD1-Rluc (D(1A) dopamine receptor fusion protein with Rluc) (UniProt P21728)
[3] = target: mutant 14-3-3σ carrying p.E75del, p.S149L and p.T165S (SFN), fused with Rluc or EYFP (human) (UniProt P31947)
[4] = target: T1, Rluc-YWHAZ WT (14-3-3ζ wild type fused with Renilla luciferase) (human), P63104; settings: remark: other sources report otherwise
T1 chain: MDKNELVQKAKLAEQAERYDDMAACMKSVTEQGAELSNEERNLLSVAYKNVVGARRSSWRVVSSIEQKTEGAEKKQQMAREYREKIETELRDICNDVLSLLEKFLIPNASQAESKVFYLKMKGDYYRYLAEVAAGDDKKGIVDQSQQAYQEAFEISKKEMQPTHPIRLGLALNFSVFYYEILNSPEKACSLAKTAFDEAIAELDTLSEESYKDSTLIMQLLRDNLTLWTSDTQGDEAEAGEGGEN

binding [1]: no binding
Molecule: DRD1-YFP (D(1A) dopamine receptor fusion protein with YFP) (from UniProt P21728 1-446)

binding [2]: no binding
Molecule: YWHAE-YFP (14-3-3ε fused with EYFP) (from UniProt P62258 1-255)

binding [3]: binds
B1: mutant 14-3-3σ carrying p.E75del, p.S149L and p.T165S (SFN), fused with Rluc or EYFP (protein, UniProt P31947 1-248)
chain: MERASLIQKAKLAEQAERYEDMAAFMKGAVEKGEELSCEERNLLSVAYKNVVGGQRAAWRVLSSIEQKSNEEGSEKGPEVREYREKVETELQGVCDTVLGLLDSHLIKEAGDAESRVFYLKMKGDYYRYLAEVATGDDKKRIIDSARLAYQEAMDISKKEMPPSNPIRLGLALNFSVFHYEIANSPEEAISLAKTTFDEAMADLHTLSEDSYKDSTLIMQLLRDNLTLWTADNAGEEGGEAPQEPQS

binding [4]: binds
B2: YWHAE-YFP (14-3-3ε fused with EYFP), P62258 1-255 (protein)
chain: MDDREDLVYQAKLAEQAERYDEMVESMKKVAGMDVELTVEERNLLSVAYKNVIGARRASWRIISSIEQKEENKGGEDKLKMIREYRQMVETELKLICCDILDVLDKHLIPAANTGESKVFYYKMKGDYHRYLAEFATGNDRKEAAENSLVAYKAASDIAMTELPPTHPIRLGLALNFSVFYYEILNSPDRACRLAKAAFDDAIAELDTLSEESYKDSTLIMQLLRDNLTLWTSDMQGDGEEQNKEALQDVEDENQ
